# Laboratory results published in the supplement of paper PMC6411743.
# Amino acid sequences for entries named in this document (tags omitted). A change or cut given only in a name is not applied to a line headed by its entry.
# UniProt P43490: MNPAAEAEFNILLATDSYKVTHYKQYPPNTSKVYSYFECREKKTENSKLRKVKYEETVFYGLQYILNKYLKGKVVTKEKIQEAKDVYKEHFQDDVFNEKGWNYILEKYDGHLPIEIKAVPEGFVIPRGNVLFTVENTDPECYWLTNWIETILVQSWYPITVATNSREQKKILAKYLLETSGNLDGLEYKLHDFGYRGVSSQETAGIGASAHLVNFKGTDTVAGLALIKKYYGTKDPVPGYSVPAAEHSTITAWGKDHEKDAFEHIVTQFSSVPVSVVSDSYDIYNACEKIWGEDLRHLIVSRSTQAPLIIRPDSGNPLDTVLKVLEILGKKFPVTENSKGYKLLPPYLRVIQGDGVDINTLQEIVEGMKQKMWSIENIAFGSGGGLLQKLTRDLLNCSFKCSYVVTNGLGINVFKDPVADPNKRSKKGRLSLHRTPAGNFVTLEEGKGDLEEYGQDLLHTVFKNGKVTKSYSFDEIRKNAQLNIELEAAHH
# UniProt P49756, whole entry: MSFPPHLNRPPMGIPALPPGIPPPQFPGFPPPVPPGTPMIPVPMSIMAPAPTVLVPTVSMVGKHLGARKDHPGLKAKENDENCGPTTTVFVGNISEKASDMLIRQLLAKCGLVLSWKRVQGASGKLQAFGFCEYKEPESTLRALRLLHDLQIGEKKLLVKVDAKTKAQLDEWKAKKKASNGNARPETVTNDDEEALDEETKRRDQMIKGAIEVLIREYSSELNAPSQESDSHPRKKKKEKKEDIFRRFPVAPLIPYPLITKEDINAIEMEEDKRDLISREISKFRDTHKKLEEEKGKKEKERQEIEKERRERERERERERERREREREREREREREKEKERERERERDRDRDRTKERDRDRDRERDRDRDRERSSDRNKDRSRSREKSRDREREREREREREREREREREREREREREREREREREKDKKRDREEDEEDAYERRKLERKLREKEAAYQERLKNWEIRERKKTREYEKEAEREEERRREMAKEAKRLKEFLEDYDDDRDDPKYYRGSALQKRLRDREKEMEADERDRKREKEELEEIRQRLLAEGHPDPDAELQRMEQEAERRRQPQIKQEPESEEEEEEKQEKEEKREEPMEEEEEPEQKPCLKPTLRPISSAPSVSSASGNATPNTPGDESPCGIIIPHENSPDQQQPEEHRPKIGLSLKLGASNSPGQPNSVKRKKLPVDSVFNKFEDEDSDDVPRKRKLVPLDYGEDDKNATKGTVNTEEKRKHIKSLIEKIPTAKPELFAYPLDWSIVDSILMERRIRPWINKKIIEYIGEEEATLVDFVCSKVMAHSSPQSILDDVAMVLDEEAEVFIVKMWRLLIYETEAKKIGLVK
# UniProt P28070, whole entry: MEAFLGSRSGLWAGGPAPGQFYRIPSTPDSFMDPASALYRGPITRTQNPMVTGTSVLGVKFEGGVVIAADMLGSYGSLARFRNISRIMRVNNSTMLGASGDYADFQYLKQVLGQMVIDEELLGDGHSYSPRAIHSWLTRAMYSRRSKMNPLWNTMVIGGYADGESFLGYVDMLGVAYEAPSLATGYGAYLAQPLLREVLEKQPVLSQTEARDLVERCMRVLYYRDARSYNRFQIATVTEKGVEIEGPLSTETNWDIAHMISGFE
# UniProt P42858, whole entry: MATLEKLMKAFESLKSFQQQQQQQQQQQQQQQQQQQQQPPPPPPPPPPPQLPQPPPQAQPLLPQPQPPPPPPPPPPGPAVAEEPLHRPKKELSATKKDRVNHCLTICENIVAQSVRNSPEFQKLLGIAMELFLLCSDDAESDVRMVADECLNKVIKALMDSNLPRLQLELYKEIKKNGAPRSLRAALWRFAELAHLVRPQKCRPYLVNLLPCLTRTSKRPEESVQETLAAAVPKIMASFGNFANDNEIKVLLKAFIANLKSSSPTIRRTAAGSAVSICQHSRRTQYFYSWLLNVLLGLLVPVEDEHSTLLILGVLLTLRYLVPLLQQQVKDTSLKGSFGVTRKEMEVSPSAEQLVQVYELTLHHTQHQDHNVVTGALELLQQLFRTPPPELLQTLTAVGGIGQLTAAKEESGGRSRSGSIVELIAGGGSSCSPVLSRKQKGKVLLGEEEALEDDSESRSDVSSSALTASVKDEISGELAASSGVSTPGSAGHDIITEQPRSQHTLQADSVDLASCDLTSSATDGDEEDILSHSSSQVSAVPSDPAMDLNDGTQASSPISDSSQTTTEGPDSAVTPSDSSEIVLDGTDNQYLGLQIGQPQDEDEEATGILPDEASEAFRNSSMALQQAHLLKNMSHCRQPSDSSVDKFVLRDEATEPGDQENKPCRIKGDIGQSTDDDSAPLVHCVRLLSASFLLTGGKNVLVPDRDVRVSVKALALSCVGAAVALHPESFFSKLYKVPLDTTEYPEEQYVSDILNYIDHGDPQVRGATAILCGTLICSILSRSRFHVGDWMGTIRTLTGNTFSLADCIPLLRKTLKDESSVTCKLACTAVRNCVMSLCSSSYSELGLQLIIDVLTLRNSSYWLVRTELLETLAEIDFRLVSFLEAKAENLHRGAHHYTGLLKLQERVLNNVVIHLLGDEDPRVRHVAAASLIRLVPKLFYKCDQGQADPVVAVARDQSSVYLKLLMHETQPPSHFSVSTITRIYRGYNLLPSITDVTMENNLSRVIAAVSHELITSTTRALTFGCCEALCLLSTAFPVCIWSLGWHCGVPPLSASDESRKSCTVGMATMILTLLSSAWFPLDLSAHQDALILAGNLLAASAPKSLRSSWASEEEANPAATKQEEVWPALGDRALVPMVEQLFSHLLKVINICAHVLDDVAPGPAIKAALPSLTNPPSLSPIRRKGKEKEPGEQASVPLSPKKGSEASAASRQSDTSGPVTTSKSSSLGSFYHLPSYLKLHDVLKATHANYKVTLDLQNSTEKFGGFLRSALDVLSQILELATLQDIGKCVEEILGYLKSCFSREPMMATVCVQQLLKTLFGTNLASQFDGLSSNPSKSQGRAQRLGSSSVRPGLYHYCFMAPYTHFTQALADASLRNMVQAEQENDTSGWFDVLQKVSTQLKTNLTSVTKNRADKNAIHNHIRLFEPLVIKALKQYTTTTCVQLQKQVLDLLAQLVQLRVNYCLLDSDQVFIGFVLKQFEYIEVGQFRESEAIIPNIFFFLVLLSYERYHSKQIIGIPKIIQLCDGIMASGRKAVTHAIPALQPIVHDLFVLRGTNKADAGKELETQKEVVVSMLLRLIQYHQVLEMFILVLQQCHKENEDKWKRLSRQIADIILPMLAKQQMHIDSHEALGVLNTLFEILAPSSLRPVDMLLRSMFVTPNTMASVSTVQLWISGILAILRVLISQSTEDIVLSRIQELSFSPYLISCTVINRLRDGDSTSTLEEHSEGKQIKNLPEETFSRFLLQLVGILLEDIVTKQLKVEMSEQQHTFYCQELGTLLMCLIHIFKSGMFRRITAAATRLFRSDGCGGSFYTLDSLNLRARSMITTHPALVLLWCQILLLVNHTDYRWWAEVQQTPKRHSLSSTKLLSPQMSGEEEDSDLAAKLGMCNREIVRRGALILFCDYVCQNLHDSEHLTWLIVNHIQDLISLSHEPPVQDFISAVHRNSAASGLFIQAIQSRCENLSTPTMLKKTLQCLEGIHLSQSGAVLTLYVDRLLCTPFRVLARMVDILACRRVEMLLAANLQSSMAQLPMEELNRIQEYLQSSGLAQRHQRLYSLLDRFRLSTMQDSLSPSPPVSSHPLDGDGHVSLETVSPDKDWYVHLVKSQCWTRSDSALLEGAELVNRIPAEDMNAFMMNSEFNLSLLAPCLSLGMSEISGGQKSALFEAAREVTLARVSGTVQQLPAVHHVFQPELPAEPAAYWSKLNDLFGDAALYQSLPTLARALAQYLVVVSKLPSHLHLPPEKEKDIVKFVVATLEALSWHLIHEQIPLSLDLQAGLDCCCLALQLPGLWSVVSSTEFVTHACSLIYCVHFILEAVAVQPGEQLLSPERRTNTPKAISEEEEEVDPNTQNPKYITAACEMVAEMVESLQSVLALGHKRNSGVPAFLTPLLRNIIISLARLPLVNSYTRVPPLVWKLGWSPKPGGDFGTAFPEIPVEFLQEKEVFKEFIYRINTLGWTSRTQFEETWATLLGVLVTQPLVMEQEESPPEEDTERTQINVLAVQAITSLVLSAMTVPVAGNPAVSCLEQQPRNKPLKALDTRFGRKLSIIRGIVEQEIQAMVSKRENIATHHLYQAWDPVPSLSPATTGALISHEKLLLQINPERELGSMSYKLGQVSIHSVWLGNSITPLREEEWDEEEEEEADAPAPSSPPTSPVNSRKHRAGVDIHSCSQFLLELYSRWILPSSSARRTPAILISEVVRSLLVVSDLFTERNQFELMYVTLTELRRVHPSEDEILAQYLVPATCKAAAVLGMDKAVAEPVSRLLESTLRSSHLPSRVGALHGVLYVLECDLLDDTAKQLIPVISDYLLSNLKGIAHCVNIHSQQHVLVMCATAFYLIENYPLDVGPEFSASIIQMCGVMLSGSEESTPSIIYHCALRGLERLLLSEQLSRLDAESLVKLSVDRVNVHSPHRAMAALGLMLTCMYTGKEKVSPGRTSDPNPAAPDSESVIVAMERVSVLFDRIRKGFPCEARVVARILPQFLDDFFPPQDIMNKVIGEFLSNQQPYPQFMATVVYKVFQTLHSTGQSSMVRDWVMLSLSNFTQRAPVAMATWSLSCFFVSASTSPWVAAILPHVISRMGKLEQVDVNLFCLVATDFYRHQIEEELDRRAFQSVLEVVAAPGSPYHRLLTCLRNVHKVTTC
# UniProt P27824: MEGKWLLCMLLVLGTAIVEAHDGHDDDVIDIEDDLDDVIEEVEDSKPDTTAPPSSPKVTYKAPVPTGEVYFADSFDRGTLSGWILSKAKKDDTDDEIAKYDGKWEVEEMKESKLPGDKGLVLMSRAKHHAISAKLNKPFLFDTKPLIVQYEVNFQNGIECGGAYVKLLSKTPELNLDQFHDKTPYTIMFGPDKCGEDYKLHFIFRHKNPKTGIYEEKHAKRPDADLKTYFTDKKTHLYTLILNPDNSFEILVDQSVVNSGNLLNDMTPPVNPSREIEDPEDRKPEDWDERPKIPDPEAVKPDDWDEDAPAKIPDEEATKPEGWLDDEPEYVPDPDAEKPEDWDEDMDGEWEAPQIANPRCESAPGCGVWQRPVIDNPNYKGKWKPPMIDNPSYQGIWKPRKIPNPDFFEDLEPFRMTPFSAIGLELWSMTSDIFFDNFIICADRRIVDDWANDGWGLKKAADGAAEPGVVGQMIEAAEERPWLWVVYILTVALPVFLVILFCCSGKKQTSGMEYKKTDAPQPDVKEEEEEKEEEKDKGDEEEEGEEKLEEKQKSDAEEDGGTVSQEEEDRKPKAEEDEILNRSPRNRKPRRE
# ± gives the standard deviation of the averaged measurements. The list shows a part of the results.
# Compound: Nc1nc2c(ncn2[C@@H]2O[C@H](COP(=O)(O)OP(=O)(O)OP(=O)(O)O)[C@@H](O)[C@H]2O)c(=O)[nH]1 [guanosine triphosphate]
# Experiment: NP40-soluble protein abundance relative to vehicle (solubility fold change) (ratio); higher = more soluble protein in presence of GTP
# Method: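 Solubility proteome profiling in Jurkat crude lysate. Lysate was treated with Mg-GTP (0.1-10 mM) for 10 min at room temperature and 3 min at 37 °C, then solubilised with 0.8% NP40 and benzonase, followed by ultracentrifugation. Proteins were quantified by TMT10 LC-MS/MS; the value is the NP40-soluble abundance relative to the NP40-processed vehicle, from 3 independent experiments.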
Target,NP40-soluble protein abundance (concentration: 0.1mM),NP40-soluble protein abundance (concentration: 0.5mM),NP40-soluble protein abundance (concentration: 1mM),NP40-soluble protein abundance (concentration: 2mM),NP40-soluble protein abundance (concentration: 4mM),NP40-soluble protein abundance (concentration: 6mM),NP40-soluble protein abundance (concentration: 8mM),NP40-soluble protein abundance (concentration: 10mM)
NAMPT (UniProt P43490),0.996 ± 0.022,0.979 ± 0.017,0.927 ± 0.029,0.914 ± 0.033,0.92 ± 0.043,0.895 ± 0.014,0.869 ± 0.038,0.844 ± 0.067
RBM25 (UniProt P49756),0.926 ± 0.032,1.02 ± 0.048,1.03 ± 0.074,1.03 ± 0.059,1.07 ± 0.1,1.16 ± 0.13,1.28 ± 0.19,1.38 ± 0.25
PSMB4 (UniProt P28070),0.926 ± 0.12,1.01 ± 0.11,0.939 ± 0.11,1.04 ± 0.14,1.05 ± 0.21,1.03 ± 0.22,0.945 ± 0.14,0.976 ± 0.14
HTT (UniProt P42858),0.975 ± 0.014,0.988 ± 0.039,1.02 ± 0.058,1.01 ± 0.033,0.951 ± 0.018,0.97 ± 0.064,0.972 ± 0.064,0.939 ± 0.05
UniProt P27824 and related entries,0.965 ± 0.034,1 ± 0.013,0.95 ± 0.04,0.928 ± 0.048,0.883 ± 0.061,0.922 ± 0.06,0.906 ± 0.035,0.896 ± 0.051
